Experimental data published in patent US20100183645A1, “ACTIVE OR PASSIVE IMMUNIZATION AGAINST PROAPOPTOTIC NEUROTROPHINS FOR THE TREATMENT AND/OR PREVENTION OF NEURODEGENERATIVE DISEASES” (INSTITUT PASTEUR, priority 2003, published 2010).
Some of these results come from one statement about several compounds together.

System: motor neurons plated on astrocyte monolayers
Assay: Motor neuron survival in astrocyte-motor neuron co-cultures
Assay type: cell-based, rat
Details: astrocytes made reactive by LPS or peroxynitrite, following 72 h, p<0.05
Protocol: Cell cultures and treatments. […] Astrocytes were plated at a density of 2×10^4 cells/cm^2 and maintained in DMEM supplemented with 10% fetal bovine serum, HEPES (3.6 g/l), penicillin ([…]) and streptomycin (100 μg/ml).
For co-culture experiments, motor neurons were plated on astrocyte monolayers at a density of 300 cells/cm^2 and maintained in L15 medium supplemented with 0.63 mg/ml bicarbonate, 5 μg/ml insulin, 0.1 mg/ml conalbumin, 0.1 mM putrescine, 30 nM sodium selenite, 20 nM progesterone, 20 mM glucose, 100 IU/ml penicillin, 100 μg/ml streptomycin, and 2% horse serum. Drugs and blocking antibodies were added 3 h after plating at the indicated concentrations.
Treatments with peroxynitrite and LPS. Peroxynitrite was generously provided by Dr. Rafael Radi (UDELAR, Uruguay) and its concentration determined spectrophotometrically at 302 nm (e=1700 M^−1 cm^−1). Confluent astrocyte monolayers were washed with Dulbecco's phosphate-buffered saline (PBS), supplemented with 0.8 mM MgCl2, 1 mM CaCl2, and 5 mM glucose, and then incubated in 1 ml of 50 mM Na2HPO4, 90 mM NaCl, 5 mM KCl, 0.8 mM MgCl2, 1 mM CaCl2, and 5 mM glucose, pH 7.4. Finally, three additions of 5 μL bolus of peroxynitrite were made to reach the final concentration of 0.5 mM. Five minutes after peroxynitrite exposure, the buffer was removed and replaced with L15 medium, supplemented as described above. […]

O=NOO [peroxynitrite]
Reduction in motor neuron survival on astrocytes incubated with the agent: 35-40%
